We go through 1 compound from patent US7468376B2, “Pyrazolopyridine derivates” (Palau Pharma, S.A., priority 2003, dated 2008).

Molecules are shown by their SMILES.

The test relates to TNF-α release induced by LPS in human peripheral blood mononuclear cells. The test can be described thus: Test 2: Inhibition of TNF-α release induced by LPS in human peripheral blood mononuclear cells. The settings on record: test product at 0.1 μM, LPS 400 ng/mL, 19 h, TNF-α in supernatant by ELISA. The test is classed as cell-based. The method, then: Test 2: Inhibition of TNF-α Release Induced by LPS in Human Peripheral Blood Mononuclear Cells
To obtain the mononuclear cells: heparinized venous blood, obtained from healthy volunteers, is diluted with an equal volume of saline phosphate buffer without calcium or magnesium. Aliquots of 30 mL of the mixture are transferred to 50 mL centrifuge tubes containing 15 mL of Ficoll-Hypaque (1.077 g/mL). The tubes are centrifuged at 1200×g for 20 min at room temperature without braking. Approximately two-thirds of the band of platelets lying above the mononuclear cells is removed with a pipette. The mononuclear cells are carefully transferred to a 50 mL tube, washed twice with saline phosphate buffer, centrifuged at 300×g for 10 min at room temperature and resuspended in RPMI supplemented with 1% inactivated fetal bovine serum at a cell density of 2×10^6 cells/mL.
Inhibition of TNF-α release: 100 μL of mononuclear cells (2×10^6 cells/mL) are incubated on 96-well plates with 50 μL of the test product (final concentration, 0.001-10 μM) and 50 μL LPS (E. coli 055B5, Sigma) at a final concentration of 400 ng/mL for 19 h at 37° C. in an atmosphere with CO2 at 5%. The amount of TNF-α released in the supernatant is quantified using a commercial ELISA kit (Biosource International).
For orientation: ELISA stands for enzyme-linked immunosorbent assay.

In the case of `NCCn1cc2c(-c3ccc(F)cc3)c(-c3ccncc3)c(-c3ccc(F)cc3)nc2n1` [Example 90], the % Inhibition (commonly the drop in the measured response relative to a control, in per cent) at 0.1 μM is 86.3%.
